Results are given in words; binding and its absence hold for the method and conditions named. Some entries that bind do so weakly or less than the wild type.
What was measured:
[1] = molecular target: T1, B7-H3 on mouse cancer cells (mouse) (UniProt Q8VE98); experiment: flow cytometry on mouse cancer cell lines; control = secondary antibody only
T1 sequence: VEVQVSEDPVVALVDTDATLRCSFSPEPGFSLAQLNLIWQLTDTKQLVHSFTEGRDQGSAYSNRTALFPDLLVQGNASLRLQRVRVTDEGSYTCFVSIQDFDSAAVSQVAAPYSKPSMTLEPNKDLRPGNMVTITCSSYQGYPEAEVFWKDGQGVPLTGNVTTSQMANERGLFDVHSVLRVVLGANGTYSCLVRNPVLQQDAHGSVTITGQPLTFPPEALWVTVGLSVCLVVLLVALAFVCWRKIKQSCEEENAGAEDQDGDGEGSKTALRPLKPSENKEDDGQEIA

[2] = molecular target: T1, B7-H3 on mouse cancer cells (mouse); experiment: FACS on GL261 cells
[3] = molecular target: T1, B7-H3 on mouse cancer cells (mouse); experiment: FACS on 3LL, 4T1, Panc-02 and GL-261 mouse cancer cells

Measured: binding

B1: G2D IgG (antibody, V domains shown)
VH: QVQLVESGGGLVQPGGSLRLSCSASGFDFSSYPMVWVRQAPGKGLEYVSSINSGGSWTGYGAAVKGRATISRDNSKNTLYLQMNSLRAEDTATYYCARAYGAATIDAWGQGTTVTVSS
VL: SYELTQPPSVSVSPGQTARITCSGGSIGYGWYQQKAPGQAPVTVIYYNDRRPSGIPERFSGSKSGTTNTLTISGVQAEDEADYYCGSADSSSTYTGIFGGGTKLTVL
notes: The back-substitutions (L46T, S66K, V71N in VL); also called humanized 2D; G2D antibody
binds: all assays above

— patent US20260201038A1 (CELLABMED, published 2026)
